Here are results for 60 molecules from PubChem BioAssay AID2685 (National Center for Advancing Translational Sciences (NCATS), 2010).

The test is described as follows: qHTS Assay for Lipid Storage Modulators in Drosophila S3 Cells.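 For cell number change: cells counted by Cell Tracker Red CMTPX staining in the red channel.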 To be noted: BODIPY lipid droplet fluorescence, 18-24 h; for cell number change: measured here: cell count max response, cells fed with added oleic acid. Put shortly: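 Laser-scanning cytometry quantifies lipid droplet accumulation (500–530 nm total intensity; droplet/cell object ratio) in oleic acid-fed (400 uM added) Drosophila S3 cells treated with a concentration series. 20 uM Triacsin C defined 100% inhibition.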
(In general: In qHTS, concentration-response curves come from the screen itself.)

The mark [1] stands for this setting: measured here: cell number channel AC50, cells fed with added oleic acid.
Setting [2] is: measured here: lipid fluorescence (Fed channel) AC50, cells fed with added oleic acid.

The list shows a part of the results. Further columns of the screen follow, without active or inactive calls. The list favours compounds with an active or inconclusive main result. The note in brackets gives the kind of curve behind each potency; many fits are weak.

With `S=C(NCCc1ccccc1)NCCc1ccccc1`, the cell number change stood at 17.2%.

As for `CCCCNC(=O)NNc1nc(Cl)cc(C)c1C#N`, the cell number change is 2.73%.

As a reminder, the AC50 is the concentration giving half of the maximal activity seen. A low value points to activity at low concentration. As for `O=C(CSc1nc(-c2ccccc2)c(-c2ccccc2)[nH]1)Nc1ccc2c(c1)OCO2`, the cell number change was -40.5%. The AC50 under setting [1] is 8.2 µM [falling, partial curve]. Besides, the AC50 under setting [2] is 11.6 µM [falling, partial curve].

Turning to `CCN(CC(=O)Nc1c(F)cccc1F)C(=O)/C=C/c1c(C)nn(-c2ccc(F)cc2)c1C`, the cell number change is -9.18%. The AC50 under setting [2] was 2.59 µM [rising, partial curve, poor fit].

As for `O=C(CCOc1ccccc1)Nc1cccc(S(=O)(=O)Nc2ccccc2Cl)c1`, the cell number change was -1.29%. For the same molecule, the AC50 under setting [2] is 6.51 µM [falling, single point].

`COC(=O)CN1C(=O)Nc2ccc(C)cc2C1c1ccccc1` (stereo not given): the cell number change was determined as 11.2%. In addition, the concentration at half-maximal activity (AC50) under setting [2] was 0.146 µM [rising, full curve, poor fit].

As to `CC(=O)N1CCN(c2ccc(Nc3ncnc4c3oc3ccccc34)cc2)CC1`, the cell number change is -22.4%. Moreover, the half-maximal activity concentration (AC50) under setting [2] is 16.4 µM [falling, single point].

Regarding `Cn1c(N)c(C(=O)COC(=O)c2ccc3c(c2)OCCO3)c(=O)n(C)c1=O`, the cell number change came out at 13.1%. Also, the AC50 under setting [1] is 5.8 µM [rising, single point]. Moreover, the AC50 under setting [2] is 0.58 µM [rising, full curve, poor fit].

For `NCCC(=O)N1c2ccccc2Sc2ccc(Cl)cc21`, the cell number change was -24.5%. The AC50 under setting [2] was 0.259 µM [falling, full curve].

Turning to `Cc1cc(C)n(Cc2ccccc2Cl)n1`, the cell number change amounted to 27.1%. Also, the AC50 under setting [2] is 29.1 µM [rising, single point].

On to `Cc1cc(C)nc(SCC(=O)Nc2ncc(Cc3ccc(Cl)c(Cl)c3)s2)n1`, for which the cell number change was determined as 0.219%. Also, the AC50 under setting [2] was 0.366 µM [rising, full curve].

For the molecule `CCC[C@@H](CN[C@@H](CNC)[C@H](C)CC)NCC1CCC(C(C)(C)C)CC1` (stereo not given in full), the cell number change was -15.6%.

Regarding `Cc1ccc(C(=O)N(CC(C)C)c2nc3ccccc3s2)o1`, the cell number change was -30.7%. Further, the AC50 under setting [1] was 20.6 µM [falling, single point].

`C=C1CCN(c2ccc(C(=O)NCc3ccc(C)cc3)cc2[N+](=O)[O-])CC1`: the cell number change was -26.3%. For the same molecule, under setting [2], the AC50 was 20.6 µM [falling, single point].

Regarding `CN(C)CCNC(=O)CN1C(=O)COc2ccc(C(C)(C)C)cc21`, the cell number change was -5.2%. For the same molecule, under setting [2], the AC50 is 0.366 µM [falling, partial curve, poor fit].

Regarding `COc1cccc(CC(=O)OCC(=O)NCCc2ccc(F)cc2)c1`, the cell number change was -20.5%. Further, under setting [1], the AC50 is 3.26 µM [falling, single point]. Further, the AC50 under setting [2] is 3.66 µM [falling, partial curve, poor fit].

As for `COc1ccc(NC(=O)c2ccc(-c3ccc([N+](=O)[O-])cc3)o2)cc1OC`, the cell number change came to 32.7%. Besides, under setting [1], the AC50 is 1.3 µM [rising, partial curve].

Consider `CCCOc1ccc(CN(C)c2ncnc(N)n2)cc1`, for which the cell number change stood at 27.8%. Further, the AC50 under setting [2] was 8.2 µM [rising, partial curve].

As to `[O-][n+]1c2c(nn1-c1ccc(Cl)c(Cl)c1)-c1nonc1CC2`, the cell number change turned out to be 32.8%. The concentration at half-maximal activity (AC50) under setting [1] was 18.4 µM [rising, single point].

For `CCOC(=O)c1cnn(-c2ccc(C(F)(F)F)cn2)c1N`, the cell number change came to 16.5%. Under setting [2], the AC50 was 3.26 µM [rising, single point].

As for `O=C(NCCCN1CCCC1)c1ccc2c(c1)N(Cc1cccc(Cl)c1)C(=O)c1ccccc1S2=O` (stereo not given), the cell number change was 11.9%. The AC50 under setting [2] was 16.4 µM [rising, single point].

For `O=C(NCCCn1ccnc1)c1cc(-c2cccc(O)c2)on1`, the cell number change was 31.1%. In addition, the AC50 under setting [1] is 14.6 µM [rising, single point].

As for `Nc1nc(N)c(N=O)c(OCC2CCCCC2)n1`, the cell number change stood at 0.872%.

For `O=C(CC12CC3CC(CC(C3)C1)C2)N/N=C/c1ccc([N+](=O)[O-])o1`, the cell number change was -56.6%. Besides, the AC50 under setting [1] is 16.4 µM [falling, partial curve]. Also, under setting [2], the AC50 is 8.2 µM [falling, partial curve].

`CCCOC(=O)C1C2C=CC(C2)C1C(=O)OCC(=O)c1ccccc1` (stereo not given): the AC50 runs as follows: under setting [1], 3.26 µM [rising, single point]; under setting [2], 5.17 µM [rising, single point].

For the molecule `Cc1cc(C)cc(N2Cc3ccccc3C2)c1`, the cell number change is -13.5%. Also, the AC50 under setting [2] was 0.82 µM [falling, full curve].

Take `O=C(CN1CCN(Cc2ccccc2F)C1=O)NCc1cccnc1`: the cell number change was 12.1%. Further, the AC50 under setting [1] is 0.651 µM [falling, single point]. In addition, under setting [2], the AC50 was 0.651 µM [falling, single point].

In the case of `Cc1ccc(OCC(=O)n2nc(C)cc2C)c(C)c1`, the cell number change was -16.5%. The AC50 under setting [2] is 0.517 µM [falling, full curve, poor fit].

Regarding `c1coc(CNc2c3c(nc4ccccc24)CCC3)c1`, the cell number change was found to be 9.77%. Besides, the AC50 under setting [1] is 0.651 µM [rising, full curve, poor fit]. Further, the AC50 under setting [2] is 2.06 µM [rising, partial curve, poor fit].

Take `O=C(NC(=S)Nc1ccc(CN2CCOCC2)cc1)c1ccc2c(c1)OCCO2`: the cell number change is 22.4%. For the same molecule, the AC50 under setting [1] is 3.26 µM [rising, single point].

For `O=C(Nc1ccc(NC(=O)c2ccccn2)cc1)C(=O)Nc1ccc2c(c1)OCCO2`, the AC50 under setting [2] is 20.6 µM [falling, single point].

As to `Cc1ccc(Nc2ccccc2N)cc1`, the cell number change was found to be 0.615%. In addition, under setting [2], the AC50 is 29.1 µM [falling, single point].

`Cn1c(=O)c([N+](=O)[O-])c(Oc2ccccc2)c2ccccc21`: the cell number change was -57.7%. The AC50 under setting [1] is 13 µM [falling, partial curve]. In addition, the AC50 under setting [2] was 8.2 µM [falling, partial curve].

For the molecule `O=Cc1ccc(OCc2cn3ccccc3n2)cc1`, the cell number change is -16.7%. For the same molecule, the AC50 under setting [2] is 0.00461 µM [falling, full curve, poor fit].

On to `O=C(CCCN1C(=O)/C(=C/c2cccs2)SC1=S)Nc1cccc(C(=O)O)c1`, for which the cell number change is -16.2%. Also, under setting [2], the AC50 was 0.00411 µM [rising, full curve, poor fit].

Turning to `Cc1nnc(SCC(=O)NC2CCCC2)s1`, the cell number change came out at 12%. Also, the AC50 under setting [2] is 6.51 µM [falling, single point].

On to `Cc1c(Cl)cccc1NC(=S)N=Nc1c(O)n(CN2CCOCC2)c2ccccc12`, for which the cell number change is -30%. In addition, the AC50 under setting [1] was 16.4 µM [falling, single point]. The AC50 under setting [2] was 1.46 µM [falling, partial curve].

Take `O=C(NCc1ccccc1)NCC12CC3CC(CC(C3)C1)C2`: the cell number change was -10.1%. Further, the AC50 under setting [1] is 0.794 µM [falling, single point].

With `CCOC(=O)/C=c1\sc2n(c1=O)CCN=2`, the cell number change turned out to be 1.36%. Under setting [2], the AC50 was 0.461 µM [falling, full curve].

For `COc1ccc(CNC(=O)c2noc3c2CCCCC3)cc1`, the cell number change was 31.7%. Besides, the AC50 under setting [1] is 1.84 µM [rising, partial curve]. Also, the AC50 under setting [2] was 29.1 µM [rising, partial curve].

For the molecule `O=C(CN1C(=O)NC2(CCc3ccccc32)C1=O)NCc1ccccc1Cl` (stereo not given), the cell number change is -28.1%. Also, the AC50 under setting [2] was 0.411 µM [falling, full curve, poor fit].

`Cc1ccc2nc(-c3ccc(S(=O)(=O)N4CCOCC4)cc3)cn2c1`: the cell number change was found to be 0.338%. Under setting [2], the AC50 was 29.1 µM [falling, single point].

Turning to `NC(N)=Nc1nc2ccccc2o1`, the cell number change worked out at 46.5%. Under setting [1], the half-maximal activity concentration (AC50) is 0.206 µM [rising, full curve]. The concentration at half-maximal activity (AC50) under setting [2] is 18.4 µM [rising, single point].

For `Cc1ccc([C@@H]2[C@@H]3C(=O)N(C)C(=O)[C@@H]3[C@]3(Cc4ccccc4)C(=O)N(Cc4ccccn4)CC(=O)N23)o1`, the cell number change turned out to be 17.5%.

As to `CCOC(=O)c1nnn(-c2nonc2N)c1CNc1ccccc1`, the cell number change was -14.8%. In addition, the concentration at half-maximal activity (AC50) under setting [2] was 2.31 µM [rising, single point].

Regarding `Cc1cccc2cc(CN(CC3CCCO3)C(=O)c3ccco3)c(=O)[nH]c12` (stereo not given), the cell number change came to 17.5%. In addition, the AC50 under setting [2] is 1.3 µM [rising, full curve].

On to `CC1=CC(=O)C(C(C)C)=C/C1=N/OS(=O)(=O)c1ccccc1`, for which the cell number change is -76.2%. Also, the concentration at half-maximal activity (AC50) under setting [1] was 0.058 µM [falling, full curve]. Also, the AC50 under setting [2] was 0.0259 µM [falling, full curve].

For the molecule `O=[N+]([O-])c1cc(/C=N/Nc2nc(N3CCCCC3)nc(N3CCCCC3)n2)ccc1O`, the cell number change came to 15.5%. Also, the half-maximal activity concentration (AC50) under setting [2] is 6.51 µM [rising, single point].

For `CC(=O)N(C)c1ccc(NC(=O)C(Sc2ccccc2)c2ccccc2)cc1` (stereo not given), the cell number change is -24.1%. Moreover, the concentration at half-maximal activity (AC50) under setting [1] is 0.103 µM [falling, full curve, poor fit].

As to `CSc1ccc(/C=C/C(=O)OCC(=O)NC2CCS(=O)(=O)C2)cc1` (stereo not given), the cell number change was -16%. The AC50 under setting [2] is 29.1 µM [falling, single point].

As to `CCCOC1CCCN(C(=O)CCc2nnc(-c3ccc4c(c3)OCO4)o2)C1` (stereo not given), the cell number change is 8.5%. For the same molecule, the AC50 under setting [2] is 0.092 µM [falling, full curve].

Regarding `CCNC(=S)N(Cc1cc2cccc(C)c2[nH]c1=O)C1CCCC1`, the cell number change is -6.62%.

Take `CNC(=O)N(O)C1N(/N=C/c2ccccc2F)C(=S)SC1(C)C` (stereo not given): the cell number change was -1.54%.

For the molecule `COCCOC(=O)c1[nH]c2c(c1C)C(=O)CC(c1ccc(F)cc1)C2` (stereo not given), the AC50 reads like this: under setting [1], 0.92 µM [rising, single point]; under setting [2], 2.06 µM [rising, partial curve].

Take `Cc1cc2cc(CN(Cc3ccc4c(c3)OCO4)Cc3nnnn3C3CCCC3)c(=O)[nH]c2cc1C`: the cell number change was -18.1%.

Consider `CCN(CC)c1ccc(C(=S)N2CCN(c3ccccc3)CC2)cc1`, for which the cell number change came out at 31.6%. In addition, the half-maximal activity concentration (AC50) under setting [1] was 11.6 µM [rising, partial curve].

On to `Cc1ccc(S(=O)(=O)N2CCCCC2)cc1NC(=O)Nc1ccc(Cl)cc1Cl`, for which the cell number change stood at 2.46%.

Take `Cc1c(C)n(Cc2ccc(Cl)cc2)c2ccc(C(=O)NCCCN3CCOCC3)cc12`: the AC50 by setting is: under setting [1], 0.231 µM [rising, partial curve, poor fit]; under setting [2], 6.51 µM [rising, single point].

Turning to `CCc1c(C)sc(NC(=O)C2CC2)c1C(=O)OC(C)C`, the AC50 under setting [2] is 1.64 µM [falling, partial curve].

In the case of `CCNc1nc(Oc2ccc(=O)n(C)n2)nc(N2CCOCC2)n1`, the cell number change is 90.8%. The AC50 under setting [1] is 16.4 µM [rising, partial curve].
